Here are results for 37 targets from the supplement of paper PMC7666118.

Protein sequences, listed by entry. Tags and fused reporters are not part of them. Lines headed by an entry give the natural chain unless they say otherwise; changes in a name come on top.
UniProt Q86U90: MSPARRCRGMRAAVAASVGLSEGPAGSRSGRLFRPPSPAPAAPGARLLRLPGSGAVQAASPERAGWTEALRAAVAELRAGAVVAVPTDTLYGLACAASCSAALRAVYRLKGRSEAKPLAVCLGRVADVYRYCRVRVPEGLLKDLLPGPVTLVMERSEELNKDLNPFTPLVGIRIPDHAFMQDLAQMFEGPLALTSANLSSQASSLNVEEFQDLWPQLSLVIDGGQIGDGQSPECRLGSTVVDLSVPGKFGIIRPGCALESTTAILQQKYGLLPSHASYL
UniProt P17028: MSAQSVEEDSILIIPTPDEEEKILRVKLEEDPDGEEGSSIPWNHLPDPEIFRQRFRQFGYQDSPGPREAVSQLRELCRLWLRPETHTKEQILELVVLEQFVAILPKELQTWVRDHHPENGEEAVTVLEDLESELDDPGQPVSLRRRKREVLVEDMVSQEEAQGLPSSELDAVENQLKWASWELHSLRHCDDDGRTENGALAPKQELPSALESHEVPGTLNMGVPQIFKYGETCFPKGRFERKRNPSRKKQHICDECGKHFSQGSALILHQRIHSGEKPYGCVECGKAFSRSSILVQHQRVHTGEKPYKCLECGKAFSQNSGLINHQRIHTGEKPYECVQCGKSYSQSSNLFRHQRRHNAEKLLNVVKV
UniProt Q6PJT7: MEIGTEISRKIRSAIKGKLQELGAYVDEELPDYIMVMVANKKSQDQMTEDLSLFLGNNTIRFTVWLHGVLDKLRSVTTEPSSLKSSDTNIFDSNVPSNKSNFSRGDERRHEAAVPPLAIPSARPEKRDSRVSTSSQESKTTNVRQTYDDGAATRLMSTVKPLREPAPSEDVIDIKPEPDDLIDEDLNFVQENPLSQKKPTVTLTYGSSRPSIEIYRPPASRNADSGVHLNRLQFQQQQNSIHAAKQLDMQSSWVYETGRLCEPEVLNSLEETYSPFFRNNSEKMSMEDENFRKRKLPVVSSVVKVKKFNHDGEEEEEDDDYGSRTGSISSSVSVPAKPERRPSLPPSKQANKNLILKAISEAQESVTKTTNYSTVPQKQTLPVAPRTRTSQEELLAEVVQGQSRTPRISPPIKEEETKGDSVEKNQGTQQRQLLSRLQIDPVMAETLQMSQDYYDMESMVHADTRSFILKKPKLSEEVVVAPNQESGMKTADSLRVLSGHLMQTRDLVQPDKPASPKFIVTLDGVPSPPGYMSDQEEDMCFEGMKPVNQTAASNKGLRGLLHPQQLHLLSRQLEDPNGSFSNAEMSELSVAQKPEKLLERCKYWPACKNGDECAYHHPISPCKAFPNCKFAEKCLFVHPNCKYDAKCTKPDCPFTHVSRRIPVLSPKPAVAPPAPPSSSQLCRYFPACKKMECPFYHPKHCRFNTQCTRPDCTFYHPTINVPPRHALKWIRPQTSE
UniProt Q9H0D6: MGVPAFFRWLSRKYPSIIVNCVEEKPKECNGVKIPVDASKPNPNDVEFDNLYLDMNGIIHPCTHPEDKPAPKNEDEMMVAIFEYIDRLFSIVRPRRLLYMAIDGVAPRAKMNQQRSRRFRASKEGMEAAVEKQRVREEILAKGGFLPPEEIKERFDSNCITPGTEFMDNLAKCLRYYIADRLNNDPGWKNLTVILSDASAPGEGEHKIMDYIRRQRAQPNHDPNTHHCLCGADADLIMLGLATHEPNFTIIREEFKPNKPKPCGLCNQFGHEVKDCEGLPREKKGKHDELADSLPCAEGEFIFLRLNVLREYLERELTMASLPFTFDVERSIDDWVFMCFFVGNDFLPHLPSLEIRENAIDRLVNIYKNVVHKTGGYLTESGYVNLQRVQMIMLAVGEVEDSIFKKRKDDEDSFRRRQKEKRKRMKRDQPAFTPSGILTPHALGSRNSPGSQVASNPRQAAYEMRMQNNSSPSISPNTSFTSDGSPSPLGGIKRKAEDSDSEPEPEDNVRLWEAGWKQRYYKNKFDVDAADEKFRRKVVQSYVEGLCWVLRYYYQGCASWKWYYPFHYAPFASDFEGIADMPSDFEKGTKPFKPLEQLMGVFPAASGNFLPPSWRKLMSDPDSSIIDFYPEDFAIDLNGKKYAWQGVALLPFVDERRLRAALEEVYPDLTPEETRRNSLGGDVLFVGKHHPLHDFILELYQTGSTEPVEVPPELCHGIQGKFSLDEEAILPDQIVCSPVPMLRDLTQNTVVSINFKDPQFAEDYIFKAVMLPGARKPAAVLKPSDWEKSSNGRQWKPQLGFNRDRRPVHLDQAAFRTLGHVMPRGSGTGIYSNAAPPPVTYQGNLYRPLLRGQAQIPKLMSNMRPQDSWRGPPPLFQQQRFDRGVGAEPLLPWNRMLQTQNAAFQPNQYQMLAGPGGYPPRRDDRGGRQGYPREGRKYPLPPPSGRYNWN
UniProt Q709C8: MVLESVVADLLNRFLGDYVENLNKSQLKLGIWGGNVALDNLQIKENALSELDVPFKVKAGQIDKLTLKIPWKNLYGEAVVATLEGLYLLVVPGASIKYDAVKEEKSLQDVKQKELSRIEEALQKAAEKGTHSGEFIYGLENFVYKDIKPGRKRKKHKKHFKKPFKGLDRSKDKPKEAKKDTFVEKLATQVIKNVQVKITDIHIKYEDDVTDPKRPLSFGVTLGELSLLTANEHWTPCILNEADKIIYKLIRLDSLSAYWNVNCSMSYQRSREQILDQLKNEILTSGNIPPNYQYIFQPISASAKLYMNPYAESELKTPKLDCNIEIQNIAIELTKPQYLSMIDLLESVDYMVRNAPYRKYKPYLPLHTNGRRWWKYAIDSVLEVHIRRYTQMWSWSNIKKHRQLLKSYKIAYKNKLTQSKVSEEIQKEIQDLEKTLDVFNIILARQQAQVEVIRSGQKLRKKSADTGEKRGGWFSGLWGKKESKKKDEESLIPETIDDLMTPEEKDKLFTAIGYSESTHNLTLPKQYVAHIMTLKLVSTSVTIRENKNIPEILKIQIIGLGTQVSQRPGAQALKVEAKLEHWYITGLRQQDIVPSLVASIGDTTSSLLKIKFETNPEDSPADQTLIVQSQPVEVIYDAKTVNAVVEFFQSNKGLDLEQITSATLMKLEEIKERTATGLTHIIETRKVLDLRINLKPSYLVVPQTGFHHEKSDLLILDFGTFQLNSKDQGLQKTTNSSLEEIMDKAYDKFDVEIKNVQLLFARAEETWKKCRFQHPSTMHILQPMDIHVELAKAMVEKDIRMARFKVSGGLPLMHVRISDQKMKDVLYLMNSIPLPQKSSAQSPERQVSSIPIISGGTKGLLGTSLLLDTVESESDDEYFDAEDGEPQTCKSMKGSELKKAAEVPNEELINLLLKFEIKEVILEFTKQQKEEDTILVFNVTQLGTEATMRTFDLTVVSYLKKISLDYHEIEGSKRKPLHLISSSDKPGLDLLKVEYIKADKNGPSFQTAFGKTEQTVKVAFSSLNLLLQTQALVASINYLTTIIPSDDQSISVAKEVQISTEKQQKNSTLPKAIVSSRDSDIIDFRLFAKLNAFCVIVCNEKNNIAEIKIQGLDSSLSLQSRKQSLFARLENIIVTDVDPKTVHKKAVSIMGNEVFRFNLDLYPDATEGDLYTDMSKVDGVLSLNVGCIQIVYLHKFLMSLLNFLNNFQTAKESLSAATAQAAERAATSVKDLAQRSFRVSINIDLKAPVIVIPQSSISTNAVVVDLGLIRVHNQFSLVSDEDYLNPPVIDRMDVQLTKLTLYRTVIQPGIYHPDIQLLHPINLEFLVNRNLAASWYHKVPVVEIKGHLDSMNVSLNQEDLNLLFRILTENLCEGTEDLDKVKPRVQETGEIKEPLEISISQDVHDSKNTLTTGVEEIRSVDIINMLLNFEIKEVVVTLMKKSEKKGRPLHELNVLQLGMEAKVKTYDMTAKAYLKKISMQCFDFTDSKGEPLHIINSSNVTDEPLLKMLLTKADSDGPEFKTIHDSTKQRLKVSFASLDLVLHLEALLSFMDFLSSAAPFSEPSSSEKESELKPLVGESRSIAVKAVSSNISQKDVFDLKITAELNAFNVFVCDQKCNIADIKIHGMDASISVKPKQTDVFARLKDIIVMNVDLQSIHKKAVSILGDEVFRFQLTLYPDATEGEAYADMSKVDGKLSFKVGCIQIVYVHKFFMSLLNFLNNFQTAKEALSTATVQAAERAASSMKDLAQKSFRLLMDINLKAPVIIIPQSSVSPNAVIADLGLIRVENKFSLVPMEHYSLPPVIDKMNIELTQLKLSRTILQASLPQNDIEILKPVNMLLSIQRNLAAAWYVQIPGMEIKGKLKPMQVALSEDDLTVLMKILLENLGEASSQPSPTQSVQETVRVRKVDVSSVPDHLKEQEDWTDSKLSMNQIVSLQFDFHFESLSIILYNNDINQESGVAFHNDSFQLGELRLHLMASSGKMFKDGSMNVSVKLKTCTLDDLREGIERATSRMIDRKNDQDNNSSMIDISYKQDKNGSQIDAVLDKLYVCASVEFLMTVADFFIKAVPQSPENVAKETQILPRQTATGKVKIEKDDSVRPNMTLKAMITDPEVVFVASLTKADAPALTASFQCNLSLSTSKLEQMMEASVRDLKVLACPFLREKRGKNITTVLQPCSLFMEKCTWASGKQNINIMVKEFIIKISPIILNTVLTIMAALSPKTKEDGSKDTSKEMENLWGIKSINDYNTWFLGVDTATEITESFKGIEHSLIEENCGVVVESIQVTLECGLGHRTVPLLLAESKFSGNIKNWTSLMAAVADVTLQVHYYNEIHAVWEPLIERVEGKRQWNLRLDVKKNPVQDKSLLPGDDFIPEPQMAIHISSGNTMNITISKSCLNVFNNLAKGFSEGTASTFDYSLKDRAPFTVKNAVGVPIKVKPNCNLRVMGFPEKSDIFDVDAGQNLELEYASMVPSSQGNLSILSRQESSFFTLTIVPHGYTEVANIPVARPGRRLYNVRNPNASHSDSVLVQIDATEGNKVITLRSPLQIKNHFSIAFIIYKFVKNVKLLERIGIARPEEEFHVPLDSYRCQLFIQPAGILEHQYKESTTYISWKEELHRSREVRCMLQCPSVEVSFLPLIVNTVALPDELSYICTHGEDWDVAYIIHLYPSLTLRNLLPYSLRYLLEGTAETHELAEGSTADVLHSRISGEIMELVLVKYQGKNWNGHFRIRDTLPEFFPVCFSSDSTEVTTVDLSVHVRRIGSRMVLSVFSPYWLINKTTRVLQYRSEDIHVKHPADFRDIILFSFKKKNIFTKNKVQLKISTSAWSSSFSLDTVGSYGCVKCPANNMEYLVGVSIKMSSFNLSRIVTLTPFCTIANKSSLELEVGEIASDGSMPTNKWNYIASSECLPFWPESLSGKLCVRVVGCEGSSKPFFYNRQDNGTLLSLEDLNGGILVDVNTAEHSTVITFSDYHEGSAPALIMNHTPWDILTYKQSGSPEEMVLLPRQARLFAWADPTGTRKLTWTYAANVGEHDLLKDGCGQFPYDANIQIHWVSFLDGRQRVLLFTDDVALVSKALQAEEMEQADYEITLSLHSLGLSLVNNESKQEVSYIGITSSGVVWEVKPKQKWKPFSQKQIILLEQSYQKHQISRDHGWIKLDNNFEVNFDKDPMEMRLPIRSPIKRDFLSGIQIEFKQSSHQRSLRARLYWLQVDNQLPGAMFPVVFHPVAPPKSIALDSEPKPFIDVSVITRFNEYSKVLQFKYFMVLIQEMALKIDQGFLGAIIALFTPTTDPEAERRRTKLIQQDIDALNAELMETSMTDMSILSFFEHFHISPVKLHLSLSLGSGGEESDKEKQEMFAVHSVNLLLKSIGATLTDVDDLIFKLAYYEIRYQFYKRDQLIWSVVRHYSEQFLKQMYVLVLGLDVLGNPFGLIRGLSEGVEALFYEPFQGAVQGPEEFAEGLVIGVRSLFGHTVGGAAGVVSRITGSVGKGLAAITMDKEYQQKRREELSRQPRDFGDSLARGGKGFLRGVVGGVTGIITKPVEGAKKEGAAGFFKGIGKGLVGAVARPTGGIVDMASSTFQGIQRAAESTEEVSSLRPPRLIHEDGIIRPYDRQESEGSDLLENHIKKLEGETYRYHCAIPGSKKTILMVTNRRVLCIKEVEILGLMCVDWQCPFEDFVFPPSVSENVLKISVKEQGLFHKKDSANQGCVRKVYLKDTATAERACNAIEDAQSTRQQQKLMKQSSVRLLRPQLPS
UniProt Q8WU90: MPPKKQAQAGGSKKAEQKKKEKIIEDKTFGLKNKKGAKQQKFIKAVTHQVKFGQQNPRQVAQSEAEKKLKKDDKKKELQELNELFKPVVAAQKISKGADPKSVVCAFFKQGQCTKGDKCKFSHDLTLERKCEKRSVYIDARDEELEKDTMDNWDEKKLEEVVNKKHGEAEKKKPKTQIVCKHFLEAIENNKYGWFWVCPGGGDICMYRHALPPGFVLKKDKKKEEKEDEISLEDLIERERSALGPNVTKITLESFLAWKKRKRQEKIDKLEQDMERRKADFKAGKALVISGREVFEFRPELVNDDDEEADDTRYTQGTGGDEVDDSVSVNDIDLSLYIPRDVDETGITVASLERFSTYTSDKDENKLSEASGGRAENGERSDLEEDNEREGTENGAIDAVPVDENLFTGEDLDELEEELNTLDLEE

This is one part of the list.

Compound in the test: COc1ccc(Cn2ccc3ccc(C(=O)NO)cc32)cc1
Briefly: dose-dependent thermal stabilisation call (2D-TPP, DLPTP, 10% FDR) (binary (1 = stabilised)); higher = stabilised by the compound. Particulars: system: HL-60 intact cells; concentration range 0.04-10 µM.
Turning to ZFYVE1 (UniProt Q9HBF4), the “dose-dependent thermal stabilisation call” value was inactive: 0.
As to XRCC5 (UniProt P13010), the “dose-dependent thermal stabilisation call” value was inactive: 0.
The value for YRDC (UniProt Q86U90) was inactive: 0; that for XYLT2 (UniProt Q9H1B5) was inactive: 0; that for YME1L1 (UniProt Q96TA2) was inactive: 0.
The value for ZFC3H1 (UniProt O60293) was inactive: 0.
The value for ZNF277 (UniProt Q9NRM2) was inactive: 0; that for ZC3H13 (UniProt Q5T200) was inactive: 0.
Take XRCC6BP1 (UniProt Q9Y6H3): the “dose-dependent thermal stabilisation call” value was inactive: 0.
In the case of XPR1 (UniProt Q9UBH6), the “dose-dependent thermal stabilisation call” value was inactive: 0.
For the target WDR89 (UniProt Q96FK6), the “dose-dependent thermal stabilisation call” value is inactive: 0.
Then YES1 (UniProt P07947), with inactive: 0; and VANGL1 (UniProt Q8TAA9), with inactive: 0; and WRN (UniProt Q14191), with inactive: 0.
The value for ZBTB44 (UniProt Q8NCP5) was inactive: 0; that for VPS41 (UniProt P49754) was inactive: 0.
Take YY1 (UniProt P25490): the “dose-dependent thermal stabilisation call” value was inactive: 0.
The value for WDR8 (UniProt Q9P2S5) was inactive: 0; that for VAMP8 (UniProt Q9BV40) was inactive: 0; that for ZC3H18 (UniProt Q86VM9) was inactive: 0.
Consider WARS2 (UniProt Q9UGM6), for which the “dose-dependent thermal stabilisation call” value was inactive: 0.
The value for ZNF24 (UniProt P17028) was inactive: 0; that for WWP2 (UniProt O00308) was inactive: 0; that for ZBTB43 (UniProt O43298) was inactive: 0.
The value for ZC3H14 (UniProt Q6PJT7) was inactive: 0; that for XIAP (UniProt P98170) was inactive: 0.
The value for ZCCHC11 (UniProt Q5TAX3) was inactive: 0; that for XRN1 (UniProt Q8IZH2) was inactive: 0; that for UVRAG (UniProt Q9P2Y5) was inactive: 0.
As to XRN2 (UniProt Q9H0D6), the “dose-dependent thermal stabilisation call” value was inactive: 0.
As to ZDHHC20 (UniProt Q5W0Z9), the “dose-dependent thermal stabilisation call” value was inactive: 0.
For VPS13D (UniProt Q5THJ4), the “dose-dependent thermal stabilisation call” value was inactive: 0.
Take ZFAND2B (UniProt Q8WV99): the “dose-dependent thermal stabilisation call” value was inactive: 0.
The value for VCL (UniProt P18206) was inactive: 0; that for VPS13C (UniProt Q709C8) was inactive: 0; that for ZC3H15 (UniProt Q8WU90) was inactive: 0.
Then VARS (UniProt P26640), with inactive: 0.
